Assay results as given in the supplement of paper PMC11006884.
The entries are a selection whose mix differs from that of the whole data set.

Amino acid sequences for entries named in this document (tags omitted). A change or cut given only in a name is not applied to a line headed by its entry.
UniProt Q9ULI3: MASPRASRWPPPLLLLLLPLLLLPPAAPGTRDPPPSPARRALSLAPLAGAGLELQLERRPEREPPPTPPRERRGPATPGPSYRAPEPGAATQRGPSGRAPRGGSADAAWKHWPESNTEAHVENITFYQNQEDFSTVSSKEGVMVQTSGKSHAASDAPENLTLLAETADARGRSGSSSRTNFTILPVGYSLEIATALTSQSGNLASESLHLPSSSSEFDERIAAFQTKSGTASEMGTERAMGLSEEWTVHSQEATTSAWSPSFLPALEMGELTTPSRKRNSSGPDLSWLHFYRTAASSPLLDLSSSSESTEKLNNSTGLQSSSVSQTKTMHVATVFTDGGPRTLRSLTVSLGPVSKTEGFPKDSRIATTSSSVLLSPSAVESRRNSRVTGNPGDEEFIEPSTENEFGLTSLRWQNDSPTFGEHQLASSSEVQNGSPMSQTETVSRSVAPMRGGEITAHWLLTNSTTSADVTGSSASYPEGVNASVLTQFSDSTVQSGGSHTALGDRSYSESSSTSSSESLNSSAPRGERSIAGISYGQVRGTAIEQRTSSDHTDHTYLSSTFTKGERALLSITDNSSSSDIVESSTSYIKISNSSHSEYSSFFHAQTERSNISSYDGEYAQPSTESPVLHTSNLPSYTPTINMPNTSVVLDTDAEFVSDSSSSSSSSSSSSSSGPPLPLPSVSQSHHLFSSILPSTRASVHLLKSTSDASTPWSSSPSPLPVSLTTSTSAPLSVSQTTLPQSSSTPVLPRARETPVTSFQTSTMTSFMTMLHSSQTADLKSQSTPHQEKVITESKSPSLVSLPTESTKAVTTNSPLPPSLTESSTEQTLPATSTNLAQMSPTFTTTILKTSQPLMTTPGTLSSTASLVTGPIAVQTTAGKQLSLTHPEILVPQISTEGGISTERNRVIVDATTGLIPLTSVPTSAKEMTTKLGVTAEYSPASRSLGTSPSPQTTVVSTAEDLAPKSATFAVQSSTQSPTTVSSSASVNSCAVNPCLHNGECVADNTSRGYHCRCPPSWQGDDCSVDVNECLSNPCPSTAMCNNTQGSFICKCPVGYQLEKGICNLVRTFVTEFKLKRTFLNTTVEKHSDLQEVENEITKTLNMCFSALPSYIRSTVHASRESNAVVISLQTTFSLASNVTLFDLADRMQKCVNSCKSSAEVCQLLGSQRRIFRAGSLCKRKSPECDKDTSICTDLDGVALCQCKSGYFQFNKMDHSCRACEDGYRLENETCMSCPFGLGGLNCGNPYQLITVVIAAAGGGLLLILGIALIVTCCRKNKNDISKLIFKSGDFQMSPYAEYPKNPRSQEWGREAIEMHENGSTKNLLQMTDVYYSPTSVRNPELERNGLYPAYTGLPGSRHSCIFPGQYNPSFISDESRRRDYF
UniProt Q9Y3D8, whole entry: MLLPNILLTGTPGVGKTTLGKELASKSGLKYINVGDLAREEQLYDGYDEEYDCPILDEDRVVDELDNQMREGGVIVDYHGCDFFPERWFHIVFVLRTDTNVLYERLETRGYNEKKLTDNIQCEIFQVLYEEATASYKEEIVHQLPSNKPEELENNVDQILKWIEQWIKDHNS
UniProt Q9UIF9: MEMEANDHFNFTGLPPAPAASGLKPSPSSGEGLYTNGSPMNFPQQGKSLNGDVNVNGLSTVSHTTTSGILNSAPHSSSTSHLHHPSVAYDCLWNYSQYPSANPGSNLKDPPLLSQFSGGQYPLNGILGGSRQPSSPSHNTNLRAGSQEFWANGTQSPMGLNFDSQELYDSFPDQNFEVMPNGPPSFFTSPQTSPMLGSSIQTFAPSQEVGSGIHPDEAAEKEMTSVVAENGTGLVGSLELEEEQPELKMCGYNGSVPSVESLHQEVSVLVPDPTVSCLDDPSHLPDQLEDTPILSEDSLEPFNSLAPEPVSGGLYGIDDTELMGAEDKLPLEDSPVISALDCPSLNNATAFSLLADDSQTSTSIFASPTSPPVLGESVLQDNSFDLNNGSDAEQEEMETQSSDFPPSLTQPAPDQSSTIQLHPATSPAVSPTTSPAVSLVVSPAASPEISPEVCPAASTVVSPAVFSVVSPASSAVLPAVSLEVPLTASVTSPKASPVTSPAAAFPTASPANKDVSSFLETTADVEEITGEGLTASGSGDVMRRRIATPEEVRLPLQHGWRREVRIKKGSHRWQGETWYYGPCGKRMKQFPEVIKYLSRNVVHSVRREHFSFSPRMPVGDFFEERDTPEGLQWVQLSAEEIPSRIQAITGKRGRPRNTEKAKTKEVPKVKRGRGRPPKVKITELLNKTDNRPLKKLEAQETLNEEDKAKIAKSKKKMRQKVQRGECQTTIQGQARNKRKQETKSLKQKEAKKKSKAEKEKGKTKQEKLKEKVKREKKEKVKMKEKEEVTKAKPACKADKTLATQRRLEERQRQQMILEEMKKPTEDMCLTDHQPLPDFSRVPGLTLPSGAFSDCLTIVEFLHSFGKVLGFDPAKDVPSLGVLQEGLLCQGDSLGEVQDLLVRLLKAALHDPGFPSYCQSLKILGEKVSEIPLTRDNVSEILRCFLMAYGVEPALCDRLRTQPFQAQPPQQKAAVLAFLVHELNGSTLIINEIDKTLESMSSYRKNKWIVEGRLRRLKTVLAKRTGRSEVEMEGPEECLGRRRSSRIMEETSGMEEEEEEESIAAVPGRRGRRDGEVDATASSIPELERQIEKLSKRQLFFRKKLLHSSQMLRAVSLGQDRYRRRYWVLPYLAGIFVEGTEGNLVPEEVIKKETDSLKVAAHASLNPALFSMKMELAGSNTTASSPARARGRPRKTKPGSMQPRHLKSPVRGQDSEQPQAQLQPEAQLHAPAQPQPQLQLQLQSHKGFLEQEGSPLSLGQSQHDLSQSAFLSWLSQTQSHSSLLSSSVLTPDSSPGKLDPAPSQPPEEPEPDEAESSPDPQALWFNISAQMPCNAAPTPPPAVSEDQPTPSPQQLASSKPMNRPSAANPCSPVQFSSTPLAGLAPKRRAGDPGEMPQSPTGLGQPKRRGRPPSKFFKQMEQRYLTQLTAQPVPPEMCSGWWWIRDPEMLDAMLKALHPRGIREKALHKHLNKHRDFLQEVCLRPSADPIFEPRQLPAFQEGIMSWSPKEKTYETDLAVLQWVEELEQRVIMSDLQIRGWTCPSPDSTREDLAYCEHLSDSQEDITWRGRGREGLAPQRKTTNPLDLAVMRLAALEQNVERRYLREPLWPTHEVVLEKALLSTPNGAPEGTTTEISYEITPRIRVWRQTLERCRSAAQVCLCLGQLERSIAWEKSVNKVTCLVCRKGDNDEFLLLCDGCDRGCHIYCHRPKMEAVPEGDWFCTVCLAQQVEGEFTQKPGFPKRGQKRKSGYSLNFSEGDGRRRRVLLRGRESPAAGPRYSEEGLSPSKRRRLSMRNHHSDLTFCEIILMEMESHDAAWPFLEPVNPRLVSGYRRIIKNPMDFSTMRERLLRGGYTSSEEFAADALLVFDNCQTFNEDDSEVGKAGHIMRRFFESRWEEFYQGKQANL
UniProt Q9UNE7: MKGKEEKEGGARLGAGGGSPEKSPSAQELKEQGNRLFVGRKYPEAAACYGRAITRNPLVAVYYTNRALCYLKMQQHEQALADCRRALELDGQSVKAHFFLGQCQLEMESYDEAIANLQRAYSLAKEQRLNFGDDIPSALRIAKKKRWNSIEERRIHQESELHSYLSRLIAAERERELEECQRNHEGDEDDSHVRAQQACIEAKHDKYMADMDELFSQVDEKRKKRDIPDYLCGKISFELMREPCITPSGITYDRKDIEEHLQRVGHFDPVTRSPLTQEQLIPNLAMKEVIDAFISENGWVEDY
UniProt Q9ULG1, whole entry, looked up: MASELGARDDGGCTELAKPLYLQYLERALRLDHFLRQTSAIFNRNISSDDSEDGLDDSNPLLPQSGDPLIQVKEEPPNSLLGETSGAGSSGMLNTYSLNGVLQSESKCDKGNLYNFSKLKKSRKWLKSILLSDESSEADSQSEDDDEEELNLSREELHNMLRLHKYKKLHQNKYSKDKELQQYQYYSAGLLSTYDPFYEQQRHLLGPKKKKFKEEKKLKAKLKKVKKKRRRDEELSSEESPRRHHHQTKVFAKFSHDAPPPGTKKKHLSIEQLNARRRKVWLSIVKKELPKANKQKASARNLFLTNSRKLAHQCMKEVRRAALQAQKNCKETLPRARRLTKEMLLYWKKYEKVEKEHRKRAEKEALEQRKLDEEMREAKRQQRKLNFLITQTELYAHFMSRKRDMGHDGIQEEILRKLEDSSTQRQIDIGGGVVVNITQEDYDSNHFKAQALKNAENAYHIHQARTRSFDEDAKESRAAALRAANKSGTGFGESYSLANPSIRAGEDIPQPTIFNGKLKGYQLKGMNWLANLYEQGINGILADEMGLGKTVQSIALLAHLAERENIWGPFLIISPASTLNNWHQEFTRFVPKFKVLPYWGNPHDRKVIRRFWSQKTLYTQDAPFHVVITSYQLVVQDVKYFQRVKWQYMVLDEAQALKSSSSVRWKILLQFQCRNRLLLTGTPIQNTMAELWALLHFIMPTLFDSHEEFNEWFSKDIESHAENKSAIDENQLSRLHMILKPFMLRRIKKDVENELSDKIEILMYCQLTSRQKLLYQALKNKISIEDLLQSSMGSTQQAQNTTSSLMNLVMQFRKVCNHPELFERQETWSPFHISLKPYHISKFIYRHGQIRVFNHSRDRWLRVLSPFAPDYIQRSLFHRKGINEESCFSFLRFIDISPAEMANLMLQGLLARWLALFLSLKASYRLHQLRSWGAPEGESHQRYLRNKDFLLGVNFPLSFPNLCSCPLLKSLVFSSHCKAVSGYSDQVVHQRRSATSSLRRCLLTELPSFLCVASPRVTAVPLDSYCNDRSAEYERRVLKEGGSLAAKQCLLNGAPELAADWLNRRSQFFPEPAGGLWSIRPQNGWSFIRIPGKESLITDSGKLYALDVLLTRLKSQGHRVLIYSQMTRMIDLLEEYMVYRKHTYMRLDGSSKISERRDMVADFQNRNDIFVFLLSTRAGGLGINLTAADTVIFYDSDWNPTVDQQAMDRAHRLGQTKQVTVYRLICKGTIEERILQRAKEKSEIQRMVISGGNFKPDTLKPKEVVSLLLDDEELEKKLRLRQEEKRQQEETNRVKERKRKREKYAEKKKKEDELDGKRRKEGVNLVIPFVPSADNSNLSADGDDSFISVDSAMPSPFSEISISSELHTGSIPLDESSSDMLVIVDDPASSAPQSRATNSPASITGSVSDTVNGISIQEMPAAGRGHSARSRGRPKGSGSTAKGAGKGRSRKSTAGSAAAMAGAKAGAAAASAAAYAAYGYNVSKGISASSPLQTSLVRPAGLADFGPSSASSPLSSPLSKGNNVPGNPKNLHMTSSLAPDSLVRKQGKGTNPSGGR
UniProt Q9Y483: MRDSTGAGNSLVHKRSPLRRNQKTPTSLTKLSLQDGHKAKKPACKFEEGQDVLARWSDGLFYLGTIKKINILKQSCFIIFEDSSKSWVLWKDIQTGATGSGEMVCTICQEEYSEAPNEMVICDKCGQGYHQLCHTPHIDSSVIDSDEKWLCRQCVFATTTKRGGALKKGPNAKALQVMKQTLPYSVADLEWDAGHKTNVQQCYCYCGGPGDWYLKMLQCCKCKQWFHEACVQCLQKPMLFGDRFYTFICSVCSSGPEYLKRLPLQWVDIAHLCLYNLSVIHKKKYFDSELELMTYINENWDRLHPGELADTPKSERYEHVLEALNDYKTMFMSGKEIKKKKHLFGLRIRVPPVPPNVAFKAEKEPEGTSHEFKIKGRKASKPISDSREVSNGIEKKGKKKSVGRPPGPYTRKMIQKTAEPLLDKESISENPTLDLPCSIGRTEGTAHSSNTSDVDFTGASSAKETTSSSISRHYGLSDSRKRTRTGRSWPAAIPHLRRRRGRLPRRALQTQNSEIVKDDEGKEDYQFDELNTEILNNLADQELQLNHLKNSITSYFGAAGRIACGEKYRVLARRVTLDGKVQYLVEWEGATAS
UniProt Q9Y2R4: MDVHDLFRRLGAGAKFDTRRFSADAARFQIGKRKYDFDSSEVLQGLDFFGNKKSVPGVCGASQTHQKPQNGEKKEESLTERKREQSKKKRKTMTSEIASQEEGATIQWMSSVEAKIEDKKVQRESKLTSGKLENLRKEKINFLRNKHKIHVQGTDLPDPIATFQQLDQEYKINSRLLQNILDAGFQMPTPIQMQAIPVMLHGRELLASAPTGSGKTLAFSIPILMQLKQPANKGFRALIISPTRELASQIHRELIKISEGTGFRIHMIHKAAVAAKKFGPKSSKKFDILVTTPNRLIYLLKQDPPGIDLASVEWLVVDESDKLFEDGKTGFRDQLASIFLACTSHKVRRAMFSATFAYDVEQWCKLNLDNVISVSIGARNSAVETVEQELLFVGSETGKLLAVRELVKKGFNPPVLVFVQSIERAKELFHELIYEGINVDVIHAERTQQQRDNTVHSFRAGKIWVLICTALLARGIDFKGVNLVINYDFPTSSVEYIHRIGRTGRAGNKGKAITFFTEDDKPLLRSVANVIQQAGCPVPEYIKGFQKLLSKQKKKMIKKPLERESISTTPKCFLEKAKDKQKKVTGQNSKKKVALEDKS

compound: COC(=O)C#Cc1ccccc1 [methyl 3-phenylpropiolate]; assay: log2 ratio of iodoacetamide-alkyne labeling of the cysteine site, DMSO over compound (competition); higher = stronger covalent engagement of the cysteine by the compound, active = 1 or more; conditions: 500 µM; treatment time 1 h; system: HEK293T cell lysate
Summary of the method: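 After 1 h at ambient temperature with vehicle or electrophile (500 µM), HEK293T lysate (2 mg/mL) was labelled for 1 h with iodoacetamide alkyne and clicked to sCIP-TMT reagents. Pooled samples were trypsin-digested overnight at 37 °C, streptavidin-enriched, acid-eluted and analysed by Orbitrap Eclipse LC-MS/MS with FAIMS, then quantified in FragPipe over three replicates with duplicate channels. A cysteine's log2 competition ratio is its mean control-channel over mean compound-channel reporter intensity. Cysteines quantified in only one replicate were not included.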

log2 ratio of iodoacetamide-alkyne labeling, active:
HEG1 C1360 (UniProt Q9ULI3) 1.36

log2 ratio of iodoacetamide-alkyne labeling, inactive:
ACIN1 C1083 (UniProt Q9UKV3) 0.091
AK6 C53 (UniProt Q9Y3D8) 0.109
TIMELESS C606 (UniProt Q9UNS1) 0.112
BAZ2A C1480 (UniProt Q9UIF9) 0.257
LUC7L2 C348 (UniProt Q9Y383) 0.415
GNE C357 (UniProt Q9Y223) 0.234
MRPS16 C41 (UniProt Q9Y3D3) 0.935
STUB1 C103 (UniProt Q9UNE7) 0.185
INO80 C1049 (UniProt Q9ULG1) 0.492
MTF2 C437 (UniProt Q9Y483) 0.686
DDX52 C536 (UniProt Q9Y2R4) 0.566
STUB1 C244 (UniProt Q9UNE7) 0.47
PRR12 C112 (UniProt Q9ULL5) 0.298
STUB1 C199 (UniProt Q9UNE7) 0.493

Two consecutive entries from above, for reference:
log2 ratio of iodoacetamide-alkyne labeling, inactive:
MRPS16 C41 (UniProt Q9Y3D3) 0.935
STUB1 C103 (UniProt Q9UNE7) 0.185
